Experimental findings from PubChem BioAssay AID493014 (National Center for Advancing Translational Sciences (NCATS), 2011) are described below.

SMILES strings stand for the structures. Some of the results follow. Shown are side measurements of this screen, not its main read-out; they come without a call. The list favours compounds with an active or inconclusive main result. Words in brackets tell the shape of the fitted curve; partial curves, single points and poor fits give uncertain potencies.

This test can be described thus: qHTS Assay to Find Inhibitors of Chronic Active B-Cell Receptor Signaling. To be noted: ABC-DLBCL IkBa-CBG/CBR reporter, luminescence ratio (green luciferase fused to IkBa over red control in TMD8 lymphoma cells), 4 h. An outline of the steps:
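Compounds up to 46 uM were incubated four hours with TMD8 cells whose green CBG68 luciferase is fused to IkappaBalpha; red CBR luminescence normalised the signal, and concentration-effect curves were fitted to fusion, red and ratio data.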

Where [1] appears, read: measured here: CBR red luminescence, cell number.
Setting [2] is: measured here: IkBa-CBG green luminescence.

For `COc1ccc(-n2ncc3c(N4CCCCC4)ncnc32)cc1`, the AC50 – broadly, the concentration at which the activity in the assay is half-maximal – under setting [1] is 20.6 µM [falling, single point].
On the same count and under the same terms, next, `COc1ccc(CNC(=O)c2cnn(-c3ccc(C)cc3)c2-n2cccc2)cc1OC`: 3.16 µM [rising, single point]; `COc1cc(NC(=O)CSc2nc(C)cs2)cc(OC)c1`: 3.66 µM [falling, single point]; `CC1=NNC(=O)C1CCC(=O)N/N=C/C(Br)=C/c1ccccc1` (configuration not stated): 20.6 µM [falling, single point].
The same measure, in the same setting: next, `Cc1cc2cc(CCNC(=O)c3cccs3)c(=O)[nH]c2cc1C`: 1.84 µM [rising, full curve].
Same read-out and setting: the result for `COc1cc(CNC2CCCCC2)c(Br)cc1OC1CCCC1` reads 14.1 µM [falling, partial curve, poor fit].
On to `S=c1[nH]nc(C2CCCCC2)n1/N=C/c1ccccc1Br`, for which, under setting [1], the AC50 was 12.6 µM [rising, single point].
Same read-out and setting: the result for `Cc1sc(-c2ccncc2)nc1OC(=O)c1ccccc1` reads 23.1 µM [falling, partial curve]; that for `CCOc1ccc(NC(=S)NC(C)C(c2ccccc2)N2CCN(C)CC2)cc1` (configuration not stated), 7.94 µM [falling, partial curve].
Regarding `O=C(Nc1cccc(Cl)c1)Nc1csc([N+](=O)[O-])c1`, the AC50 is 35.5 µM [falling, single point] under setting [1] and 12.6 µM [rising, partial curve, poor fit] under setting [2].
With `O=C(Nc1ccc(CN2CCOCC2)cc1)c1ccc(-c2ccc(Br)cc2)o1`, the AC50 under setting [1] was 20.6 µM [falling, single point].
For `COc1ccc(NC(=S)Nc2ccccn2)c(OC)c1`, the half-maximal activity concentration (AC50) under setting [2] was 18.4 µM [falling, partial curve, poor fit].
`Cc1ccc(CNC(=O)c2cc(C3CC3)nc3c2cnn3C(C)C)cc1`: under setting [1], the half-maximal activity concentration (AC50) is 14.6 µM [falling, partial curve].
As to `O=C(NC(=S)N1CCc2ccccc21)c1ccc(Br)o1`, the AC50 under setting [1] is 11.2 µM [rising, partial curve, poor fit].
Regarding `O=S(=O)(Cc1ccccc1)N=Nc1c(O)[nH]c2ccc(Br)cc12`, the AC50 reads like this: under setting [1], 35.5 µM [rising, single point]; under setting [2], 35.5 µM [falling, single point].
`COc1ccc(NS(=O)(=O)c2ccc(NC(C)=O)cc2)c(OC)c1`: under setting [1], the half-maximal activity concentration (AC50) was 3.16 µM [falling, partial curve, poor fit].
On the same count and under the same terms, next, `COC(C[C@@H](O)C[C@H](O)[C@@H](C)OCc1ccccc1)OC`: 0.562 µM [rising, partial curve, poor fit]; `CCc1cc(=O)[nH]c(SCc2ccc(C)cc2)n1`: 20 µM [falling, single point].
Take `CCCCOc1ccccc1C1NC(=O)CCC1[N+](=O)[O-]` (configuration not stated): the AC50 under setting [1] was 31.6 µM [rising, partial curve, poor fit].
Still for that read-out and setting: the result for `Cc1c(OCC(=O)NCCCN2CCCC2=O)ccc2c3c(c(=O)oc12)CCCC3` reads 35.5 µM [rising, single point].
The same measure, in the same setting: next, `CN(C(=O)c1cccc(N2C(=O)C3CC=CCC3C2=O)c1)C1CCCCC1` (configuration not stated): 35.5 µM [falling, single point].
Still for that read-out and setting: the result for `CCn1c(SCC(=O)Nc2ccc(OC)c(OC)c2)nnc1-c1cccs1` reads 35.5 µM [falling, single point]; that for `COc1ccc(C(=O)c2coc3ccc(OC(C)=O)cc23)cc1`, 0.501 µM [rising, partial curve, poor fit]; that for `CCOC(=O)c1c(C)n(C)c2ccc(OC)c(NC(=O)CN3CCCCC3)c12`, 11.2 µM [rising, single point].
Take `O=[N+]([O-])c1cccc(N/N=C/c2ccc(N3CCOCC3)cc2)c1`: the AC50 under setting [1] is 1 µM [rising, full curve, poor fit].
As to `CC[C@]1(C(=O)OC)[C@H]2C(=O)N(C)C(=O)[C@H]2[C@H]2CN=C(SCc3ccc(C(=O)OC)cc3)N21`, the AC50 reads like this: under setting [1], 29.1 µM [rising, single point]; under setting [2], 25.9 µM [falling, single point].
Consider `COc1ccc2c(c1OC)C(=O)N(c1ccc(O)cc1)C2`, for which, under setting [2], the AC50 was 10 µM [falling, partial curve, poor fit].
For `CCC(C)NC(=O)[C@H](CSCc1ccccc1)N1Cc2ccccc2C1=O` (some centres not stated), the AC50 under setting [1] was 6.51 µM [rising, single point].
The same measure, in the same setting: next, `O=[N+]([O-])c1cc(/C=N\Nc2nc(-c3ccccc3)cs2)ccc1O`: 12.6 µM [falling, single point].
Consider `COc1ccc(CCN(C)Cc2c(O)ccc3ccccc23)cc1OC`, for which the AC50 under setting [1] was 11.2 µM [falling, partial curve].
Same read-out and setting: next, `COc1ccccc1CC(=O)Nc1ccc2nc(C)sc2c1`: 18.4 µM [falling, partial curve, poor fit].
On to `CCCCc1c(C)c(C#N)c2nc3ccccc3n2c1Cl`, for which, under setting [1], the AC50 is 0.092 µM [falling, full curve, poor fit].
Still for that read-out and setting: the result for `CSCCC(NS(=O)(=O)/C=C/c1ccccc1)C(=O)NCCc1ccc(S(N)(=O)=O)cc1` (configuration not stated) reads 6.31 µM [rising, single point]; that for `Cc1oc(-c2ccccc2)nc1CS(=O)CC(=O)NC1CCCCCC1` (configuration not stated), 35.5 µM [falling, single point].
As to `Cc1ccc(NC(=O)C(=S)NCc2ccco2)cc1`, the AC50 under setting [1] is 0.282 µM [rising, partial curve, poor fit].
For `O=C1c2ccccc2C(Nc2ccc3c(c2)OCCO3)N1Cc1ccco1` (configuration not stated), the AC50 under setting [1] was 6.51 µM [falling, single point].
With `CCCCn1c(-c2ccccc2)nnc1-c1ccccc1`, the AC50 under setting [1] was 6.51 µM [rising, partial curve].
In the case of `COc1cccc2cc(C(=O)NCc3ccco3)c(=Nc3ccc(C(=O)O)cc3)oc12`, under setting [1], the AC50 was 0.411 µM [falling, full curve, poor fit].
Turning to `Cc1nc(CS(=O)(=O)c2ccccn2)sc1C(=O)NNC(=O)c1ccccc1`, the AC50 under setting [1] was 10 µM [falling, partial curve, poor fit].
For the compound `COc1ccc(S(=O)(=O)NCc2ccccn2)cc1NC(=O)c1ccccc1C`, the AC50 is 7.31 µM [rising, partial curve] under setting [1] and 8.2 µM [falling, partial curve] under setting [2].
`Oc1ccc(/C=N/n2c(-c3ccco3)csc2=Nc2cccnc2)c(O)c1`: the AC50 under setting [1] was 9.2 µM [falling, partial curve, poor fit].
Take `CN(C)c1ccc(/C=C/C(O)=C2/C(=O)N(C)C3(C)CC2c2ccccc2O3)cc1` (configuration not stated): under setting [1], the AC50 is 14.6 µM [rising, single point].
Take `CCCCCCNC(=O)N[C@@H](C(=O)NCCC[C@H]1CN2C(=NC[C@@H]2Cc2ccccc2)N1CCc1cccc(OC)c1)C(C)C`: the AC50 is 35.5 µM [rising, single point] under setting [1] and 25.1 µM [falling, single point] under setting [2].
In the case of `O=C(Nc1ccc(N2CCOCC2)c(Cl)c1)c1ccccc1F`, the AC50 under setting [1] was 13 µM [falling, partial curve, poor fit].
The same measure, in the same setting: next, `NNC(=O)c1ccc(N2CCCCCC2)c([N+](=O)[O-])c1`: 7.94 µM [falling, partial curve].
As to `Cc1sc(NC(=O)C2=COCCO2)nc1-c1ccc(Cl)cc1`, the AC50 under setting [1] is 0.461 µM [rising, full curve, poor fit].
Take `COc1ccccc1NC(=O)Nc1nnc(CC(=O)Nc2cccc(C)c2)s1`: the half-maximal activity concentration (AC50) under setting [1] is 10 µM [falling, partial curve, poor fit].
`COc1ccc(Nc2cc(Nc3cccc(OC)c3)ncn2)cc1`: under setting [1], the AC50 was 20 µM [falling, partial curve, poor fit].
Same read-out and setting: next, `CC(=O)Nc1ccc(S(=O)(=O)Oc2ccc(/C=C3\SC(N)=NC3=O)cc2)cc1`: 14.1 µM [rising, partial curve, poor fit]; `Cc1ccccc1-n1c([C@@H]2C[C@H]2c2ccccc2)n[nH]c1=S`: 6.31 µM [falling, full curve, poor fit]; `O=C(CSc1cccc2cccnc12)Nc1ccc(S(=O)(=O)N2CCOCC2)cc1`: 10 µM [falling, single point].
Same read-out and setting: the result for `O=C(NCc1ccon1)C1CCC(=O)N(CCc2ccc(Cl)cc2)C1` (configuration not stated) reads 12.6 µM [rising, partial curve, poor fit]; that for `COc1cccc(NC(=O)c2ccc(CN3CCOCC3)cc2)c1`, 20 µM [falling, single point].
Regarding `COc1cc(CN2CCN(C(=O)c3cccc4ccccc34)CC2)cc(OC)c1OC`, the AC50 under setting [1] is 5.62 µM [rising, partial curve, poor fit].
For the compound `C=CCC1C=C(C)CC(CC=C)N1` (configuration not stated), the AC50 under setting [1] is 12.6 µM [rising, partial curve, poor fit].
On the same count and under the same terms, next, `COc1ccc([N+](=O)[O-])c(OC)c1C(=O)NC(=O)Nc1nc(C)cc(C)n1`: 0.708 µM [falling, full curve, poor fit].
The same measure, in the same setting: next, `CCOc1cccc2sc(N(CCCN(C)C)C(=O)c3ccc(S(=O)(=O)N(C)c4ccccc4)cc3)nc12`: 35.5 µM [falling, single point]; `CCn1cc(CN2CCc3c([nH]c4ccccc34)C2c2cccc(OC)c2)c(C)n1` (configuration not stated): 35.5 µM [falling, single point]; `COc1ccc(C2C(C)C3(O)CC(C#N)(C(=O)N3)C2(C#N)C#N)cc1` (configuration not stated): 12.6 µM [rising, partial curve, poor fit].
The same measure, in the same setting: next, `CCc1cccc(OCC(=O)Nc2ccc(C(=O)O)cc2NC(=O)COc2cccc(CC)c2)c1`: 35.5 µM [falling, single point]; `CCc1nnc(NC(=O)CSc2nnc(-c3ccccc3O)o2)s1`: 7.94 µM [falling, partial curve]; `N#Cc1nc(COc2ccc(Br)cc2)oc1N1CCCC1`: 15.8 µM [rising, partial curve, poor fit].
